Test results reported in doi:10.1101/291294.
Results are given in words; binding and its absence hold for the method and conditions named. In cells and extracts the contact can be indirect. Some binding calls cover weakened binding; strength is not graded here.

Amino acid sequences for entries named in this document (tags omitted). A change or cut given only in a name is not applied to a line headed by its entry. Residues count along the entry.
UniProt O95166, whole entry: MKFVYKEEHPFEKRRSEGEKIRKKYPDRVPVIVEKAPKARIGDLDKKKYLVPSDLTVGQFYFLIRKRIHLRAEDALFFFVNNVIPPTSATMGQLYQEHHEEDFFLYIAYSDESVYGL
UniProt P98170, whole entry: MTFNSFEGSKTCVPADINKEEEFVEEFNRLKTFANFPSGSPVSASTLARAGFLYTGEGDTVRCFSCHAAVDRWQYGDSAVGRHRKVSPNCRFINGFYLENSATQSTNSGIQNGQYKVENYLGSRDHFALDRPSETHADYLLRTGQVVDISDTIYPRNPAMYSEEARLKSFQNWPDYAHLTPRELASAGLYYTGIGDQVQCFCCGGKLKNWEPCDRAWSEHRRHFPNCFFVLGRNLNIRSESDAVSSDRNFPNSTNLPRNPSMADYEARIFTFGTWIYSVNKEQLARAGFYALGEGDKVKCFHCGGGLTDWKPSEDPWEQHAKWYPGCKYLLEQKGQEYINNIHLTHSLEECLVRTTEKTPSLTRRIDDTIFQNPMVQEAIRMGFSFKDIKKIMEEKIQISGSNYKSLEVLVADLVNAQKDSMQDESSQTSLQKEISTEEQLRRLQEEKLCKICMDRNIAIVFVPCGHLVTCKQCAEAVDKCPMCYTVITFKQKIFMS
UniProt P98170, 1-123: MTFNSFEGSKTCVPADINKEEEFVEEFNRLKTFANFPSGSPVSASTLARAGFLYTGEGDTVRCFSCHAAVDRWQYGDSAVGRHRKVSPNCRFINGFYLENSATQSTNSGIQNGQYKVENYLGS
UniProt P98170, 1-261: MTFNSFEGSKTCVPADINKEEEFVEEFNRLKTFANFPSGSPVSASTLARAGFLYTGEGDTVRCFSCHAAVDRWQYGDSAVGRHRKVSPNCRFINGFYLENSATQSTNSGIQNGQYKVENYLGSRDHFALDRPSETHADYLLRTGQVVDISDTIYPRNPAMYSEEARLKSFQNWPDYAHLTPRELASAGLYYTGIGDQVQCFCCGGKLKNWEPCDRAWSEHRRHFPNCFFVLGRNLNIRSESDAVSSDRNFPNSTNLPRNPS
UniProt P98170, 1-350: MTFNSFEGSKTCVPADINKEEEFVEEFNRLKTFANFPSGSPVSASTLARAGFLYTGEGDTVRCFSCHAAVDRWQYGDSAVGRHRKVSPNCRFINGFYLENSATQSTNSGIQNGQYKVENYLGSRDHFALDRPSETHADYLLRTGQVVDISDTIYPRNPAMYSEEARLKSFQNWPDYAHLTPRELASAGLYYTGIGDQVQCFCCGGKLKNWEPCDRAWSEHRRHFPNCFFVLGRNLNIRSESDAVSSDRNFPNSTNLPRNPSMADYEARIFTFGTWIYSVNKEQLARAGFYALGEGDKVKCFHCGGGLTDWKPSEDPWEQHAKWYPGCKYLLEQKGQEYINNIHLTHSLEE
UniProt P98170, 124-261: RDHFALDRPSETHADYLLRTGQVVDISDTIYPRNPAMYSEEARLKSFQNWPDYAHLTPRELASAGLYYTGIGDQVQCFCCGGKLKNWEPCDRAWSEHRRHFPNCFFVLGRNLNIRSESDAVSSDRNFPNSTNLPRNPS
UniProt P98170, 124-350: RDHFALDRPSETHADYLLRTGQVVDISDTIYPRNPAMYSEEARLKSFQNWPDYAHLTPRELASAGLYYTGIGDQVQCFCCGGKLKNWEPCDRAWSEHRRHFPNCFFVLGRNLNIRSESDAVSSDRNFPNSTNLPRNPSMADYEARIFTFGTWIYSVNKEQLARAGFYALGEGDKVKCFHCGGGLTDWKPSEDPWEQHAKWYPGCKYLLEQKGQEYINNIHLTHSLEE
UniProt P98170, 262-350: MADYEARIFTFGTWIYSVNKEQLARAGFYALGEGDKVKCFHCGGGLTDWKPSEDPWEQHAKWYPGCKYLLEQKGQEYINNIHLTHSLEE
UniProt P98170, 1-449, stated change not applied: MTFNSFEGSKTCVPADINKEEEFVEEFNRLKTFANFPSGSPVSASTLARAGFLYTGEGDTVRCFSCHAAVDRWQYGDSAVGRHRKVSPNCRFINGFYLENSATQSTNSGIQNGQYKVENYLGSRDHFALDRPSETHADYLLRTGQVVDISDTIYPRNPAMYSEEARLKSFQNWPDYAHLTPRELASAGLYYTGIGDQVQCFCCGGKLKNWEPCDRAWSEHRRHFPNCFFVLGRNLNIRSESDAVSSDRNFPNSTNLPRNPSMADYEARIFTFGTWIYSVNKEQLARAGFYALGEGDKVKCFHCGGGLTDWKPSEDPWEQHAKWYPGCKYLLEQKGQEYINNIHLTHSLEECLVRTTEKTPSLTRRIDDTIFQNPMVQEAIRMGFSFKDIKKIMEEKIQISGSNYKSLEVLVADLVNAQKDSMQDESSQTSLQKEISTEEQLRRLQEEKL
UniProt P98170, 262-497, stated change not applied: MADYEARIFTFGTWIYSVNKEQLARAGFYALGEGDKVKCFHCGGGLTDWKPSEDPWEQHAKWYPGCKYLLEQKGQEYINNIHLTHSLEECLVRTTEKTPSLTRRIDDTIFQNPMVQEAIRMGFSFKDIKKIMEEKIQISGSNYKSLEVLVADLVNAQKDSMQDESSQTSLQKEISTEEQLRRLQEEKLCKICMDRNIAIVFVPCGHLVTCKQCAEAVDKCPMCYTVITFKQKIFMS
UniProt P98170, 331-497, stated change not applied: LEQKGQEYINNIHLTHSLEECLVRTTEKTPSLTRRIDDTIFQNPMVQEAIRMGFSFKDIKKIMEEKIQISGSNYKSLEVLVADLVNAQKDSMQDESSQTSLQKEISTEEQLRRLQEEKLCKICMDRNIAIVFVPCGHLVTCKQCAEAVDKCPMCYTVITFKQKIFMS
UniProt P56962, whole entry: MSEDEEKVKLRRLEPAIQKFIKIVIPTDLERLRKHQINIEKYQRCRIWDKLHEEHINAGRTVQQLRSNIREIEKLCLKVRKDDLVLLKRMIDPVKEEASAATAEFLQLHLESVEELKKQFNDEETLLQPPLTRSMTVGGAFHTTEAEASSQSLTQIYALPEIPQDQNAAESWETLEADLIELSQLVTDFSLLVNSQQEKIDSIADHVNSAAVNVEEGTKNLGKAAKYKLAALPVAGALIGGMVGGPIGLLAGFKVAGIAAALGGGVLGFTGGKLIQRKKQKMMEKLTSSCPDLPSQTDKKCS
UniProt Q6ZNE5, whole entry: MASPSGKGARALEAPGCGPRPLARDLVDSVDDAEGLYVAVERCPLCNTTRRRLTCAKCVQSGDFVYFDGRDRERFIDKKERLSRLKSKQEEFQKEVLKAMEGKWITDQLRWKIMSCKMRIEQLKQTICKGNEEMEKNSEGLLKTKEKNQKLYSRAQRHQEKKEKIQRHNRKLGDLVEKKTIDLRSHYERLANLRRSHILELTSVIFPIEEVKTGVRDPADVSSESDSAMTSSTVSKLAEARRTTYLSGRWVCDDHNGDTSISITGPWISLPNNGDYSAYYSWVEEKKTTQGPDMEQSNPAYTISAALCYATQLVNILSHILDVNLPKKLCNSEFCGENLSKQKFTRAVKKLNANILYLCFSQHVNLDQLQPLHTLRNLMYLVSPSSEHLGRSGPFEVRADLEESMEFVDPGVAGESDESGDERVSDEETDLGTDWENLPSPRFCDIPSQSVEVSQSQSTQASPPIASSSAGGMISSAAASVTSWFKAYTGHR
UniProt Q9Y4G2, whole entry: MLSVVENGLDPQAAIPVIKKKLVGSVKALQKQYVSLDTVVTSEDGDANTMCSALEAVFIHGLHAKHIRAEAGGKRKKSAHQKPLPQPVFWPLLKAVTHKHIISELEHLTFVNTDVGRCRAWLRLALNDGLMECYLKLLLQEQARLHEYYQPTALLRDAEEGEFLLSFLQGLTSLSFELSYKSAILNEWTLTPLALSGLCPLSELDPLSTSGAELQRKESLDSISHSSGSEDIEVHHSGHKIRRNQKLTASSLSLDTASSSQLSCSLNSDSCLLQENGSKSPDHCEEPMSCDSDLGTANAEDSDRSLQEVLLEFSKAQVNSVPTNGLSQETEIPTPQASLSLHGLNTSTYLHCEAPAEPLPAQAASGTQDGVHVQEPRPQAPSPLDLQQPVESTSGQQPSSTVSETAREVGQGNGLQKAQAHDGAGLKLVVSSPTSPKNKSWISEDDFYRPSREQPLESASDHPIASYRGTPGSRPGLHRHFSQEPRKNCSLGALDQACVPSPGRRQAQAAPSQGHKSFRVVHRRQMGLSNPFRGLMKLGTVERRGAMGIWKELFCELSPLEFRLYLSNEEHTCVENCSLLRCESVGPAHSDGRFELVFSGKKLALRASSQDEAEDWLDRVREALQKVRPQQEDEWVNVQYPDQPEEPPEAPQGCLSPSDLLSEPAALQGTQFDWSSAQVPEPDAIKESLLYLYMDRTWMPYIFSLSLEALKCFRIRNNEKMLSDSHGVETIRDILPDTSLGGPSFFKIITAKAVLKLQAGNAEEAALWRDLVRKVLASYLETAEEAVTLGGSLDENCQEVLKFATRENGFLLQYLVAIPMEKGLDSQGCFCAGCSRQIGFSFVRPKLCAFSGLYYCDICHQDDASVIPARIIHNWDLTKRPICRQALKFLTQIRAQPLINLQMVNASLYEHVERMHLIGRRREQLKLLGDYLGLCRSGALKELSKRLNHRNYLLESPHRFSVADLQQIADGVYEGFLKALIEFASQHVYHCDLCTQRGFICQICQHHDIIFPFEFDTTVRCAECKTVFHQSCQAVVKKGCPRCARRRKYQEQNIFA

Legend:
[1] = target: GST-tagged human GABARAP (human) (UniProt O95166); experiment: pull-down
[2] = target: GST-tagged human XIAP (human) (UniProt P98170); experiment: pull-down

Substance: HA-XIAP Δ2BIR (aa262-497) (from UniProt P98170 262-497) (domain or fragment)
- binding [1]: binds

Substance: HA-XIAP BIR2-3 (aa 124-350) (from UniProt P98170 124-350) (domain or fragment)
- binding [1]: binds

Substance: HA-XIAP ΔBIR (aa 331-497) (from UniProt P98170 331-497) (domain or fragment)
- binding [1]: binds

Substance: HA-XIAP BIR1-2-3 (aa 1-350) (from UniProt P98170 1-350) (domain or fragment)
- binding [1]: binds

Substance: GFP-STX17 (from UniProt P56962 1-302)
- binding [2]: binds

Substance: HA-XIAP-BIR3 (aa 262-350) (from UniProt P98170 262-350) (domain or fragment)
- binding [1]: no binding

Substance: HA-XIAPΔRING (aa 1-449) (from UniProt P98170 1-449) (domain or fragment)
- binding [1]: binds

Substance: HA-XIAP BIR2 (aa 124-261) (from UniProt P98170 124-261) (domain or fragment)
- binding [1]: binds

Substance: GFP-fusion of ATG14 (from UniProt Q6ZNE5 1-492)
- binding [2]: no binding

Substance: HA-XIAP FL (aa1-497) (from UniProt P98170 1-497)
- binding [1]: binds

Substance: HA-XIAP BIR1 (aa 1-123) (from UniProt P98170 1-123) (domain or fragment)
- binding [1]: binds

Substance: HA-XIAP H467A (from UniProt P98170 1-497)
- binding [1]: binds

Substance: GFP-fusion of PLEKHM1 (from UniProt Q9Y4G2 1-1056)
- binding [2]: no binding

Substance: HA-XIAP BIR1-2 (aa 1-261) (from UniProt P98170 1-261) (domain or fragment)
- binding [1]: binds
